Reference: PubChem BioAssay AID1508597 (Cure First, 2020)
Assay: 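Survival screen with siRNA in ovarian cancer cells derived from patients, with or without rucaparib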 (primary screen). Cell system: human ovarian carcinoma lines grown from tumours: OCI-P5x (papillary serous) and OCI-C5x (clear cell). Knock-down reagent: siRNA pool against human genes, 1.25 pmol siRNA per well. Timing: 72 h or 96 h, depending on the cell culture. Challenge: rucaparib 20 µM (about IC30) or vehicle, present until read-out. Detection: 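ATP luminescence measured at 72 or 96 h according to the culture, then normalised and expressed as percent viability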. Scale: viability, normalised: higher = more viable cells remaining. Rule for the call: 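Active when normalised viability falls below 80 percent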. Meaning of the calls: active = viability under 80%; inactive = viability 80% or more.
In all, the deposit lists about 2,100 reagents; this is an unselected part. 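Calls flag viability under 80% in either arm, not effects specific to rucaparib; the reference for percent is not stated.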 Some reagents were tested in more than one well and are listed for each. Not given: the 100% reference.

gene symbol	rucaparib or vehicle	cell line	technical replicate	viability, normalised (%)	outcome
JAK2	Rucaparib	OCI-C5x (clear cell)	1	42.3	active
JAK2	Rucaparib	OCI-C5x (clear cell)	1	70.9	active
JAK2	Rucaparib	OCI-C5x (clear cell)	2	66.8	active
JAK2	Rucaparib	OCI-C5x (clear cell)	2	37.9	active
JAK2	Rucaparib	OCI-C5x (clear cell)	3	38.4	active
JAK2	Rucaparib	OCI-C5x (clear cell)	3	68.9	active
JAK2	Rucaparib	OCI-P5x (serous)	1	123	inactive
JAK2	Rucaparib	OCI-P5x (serous)	1	73	active
JAK2	Rucaparib	OCI-P5x (serous)	2	121	inactive
JAK2	Rucaparib	OCI-P5x (serous)	2	59.3	active
JAK2	Rucaparib	OCI-P5x (serous)	3	123	inactive
JAK2	Rucaparib	OCI-P5x (serous)	3	66.5	active
JAK2	Vehicle	OCI-C5x (clear cell)	1	47.7	active
JAK2	Vehicle	OCI-C5x (clear cell)	1	83.5	inactive
JAK2	Vehicle	OCI-C5x (clear cell)	2	89.6	inactive
JAK2	Vehicle	OCI-C5x (clear cell)	2	58.2	active
JAK2	Vehicle	OCI-C5x (clear cell)	3	56.8	active
JAK2	Vehicle	OCI-C5x (clear cell)	3	97.8	inactive
JAK2	Vehicle	OCI-P5x (serous)	1	76.4	active
JAK2	Vehicle	OCI-P5x (serous)	1	131	inactive
JAK2	Vehicle	OCI-P5x (serous)	2	114	inactive
JAK2	Vehicle	OCI-P5x (serous)	2	78.4	active
JAK2	Vehicle	OCI-P5x (serous)	3	122	inactive
JAK2	Vehicle	OCI-P5x (serous)	3	80.9	inactive
